Consider four molecules from article PMC11534691.

By UniProt entry, the sequences of proteins in these tests, tags left out. Where a name states a change or a piece, a line headed by the entry shows the natural chain unless it says otherwise.
UniProt Q96AC1: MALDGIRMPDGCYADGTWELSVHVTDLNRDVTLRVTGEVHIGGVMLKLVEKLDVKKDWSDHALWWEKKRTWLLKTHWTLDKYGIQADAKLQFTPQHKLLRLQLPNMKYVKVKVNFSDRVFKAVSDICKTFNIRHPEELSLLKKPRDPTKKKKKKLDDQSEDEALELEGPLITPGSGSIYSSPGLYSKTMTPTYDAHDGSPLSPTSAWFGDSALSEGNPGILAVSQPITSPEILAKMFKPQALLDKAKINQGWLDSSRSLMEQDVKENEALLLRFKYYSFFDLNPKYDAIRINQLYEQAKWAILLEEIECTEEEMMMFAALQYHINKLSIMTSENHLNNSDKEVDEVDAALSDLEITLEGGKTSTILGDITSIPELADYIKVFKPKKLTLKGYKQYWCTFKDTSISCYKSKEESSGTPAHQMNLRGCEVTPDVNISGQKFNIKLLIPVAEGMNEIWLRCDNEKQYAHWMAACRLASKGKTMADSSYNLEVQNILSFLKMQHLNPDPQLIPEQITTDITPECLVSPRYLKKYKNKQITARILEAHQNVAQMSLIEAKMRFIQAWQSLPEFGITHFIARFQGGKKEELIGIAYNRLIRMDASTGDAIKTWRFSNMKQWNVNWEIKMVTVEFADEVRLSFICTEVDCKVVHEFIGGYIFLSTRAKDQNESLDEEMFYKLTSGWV
UniProt P05556: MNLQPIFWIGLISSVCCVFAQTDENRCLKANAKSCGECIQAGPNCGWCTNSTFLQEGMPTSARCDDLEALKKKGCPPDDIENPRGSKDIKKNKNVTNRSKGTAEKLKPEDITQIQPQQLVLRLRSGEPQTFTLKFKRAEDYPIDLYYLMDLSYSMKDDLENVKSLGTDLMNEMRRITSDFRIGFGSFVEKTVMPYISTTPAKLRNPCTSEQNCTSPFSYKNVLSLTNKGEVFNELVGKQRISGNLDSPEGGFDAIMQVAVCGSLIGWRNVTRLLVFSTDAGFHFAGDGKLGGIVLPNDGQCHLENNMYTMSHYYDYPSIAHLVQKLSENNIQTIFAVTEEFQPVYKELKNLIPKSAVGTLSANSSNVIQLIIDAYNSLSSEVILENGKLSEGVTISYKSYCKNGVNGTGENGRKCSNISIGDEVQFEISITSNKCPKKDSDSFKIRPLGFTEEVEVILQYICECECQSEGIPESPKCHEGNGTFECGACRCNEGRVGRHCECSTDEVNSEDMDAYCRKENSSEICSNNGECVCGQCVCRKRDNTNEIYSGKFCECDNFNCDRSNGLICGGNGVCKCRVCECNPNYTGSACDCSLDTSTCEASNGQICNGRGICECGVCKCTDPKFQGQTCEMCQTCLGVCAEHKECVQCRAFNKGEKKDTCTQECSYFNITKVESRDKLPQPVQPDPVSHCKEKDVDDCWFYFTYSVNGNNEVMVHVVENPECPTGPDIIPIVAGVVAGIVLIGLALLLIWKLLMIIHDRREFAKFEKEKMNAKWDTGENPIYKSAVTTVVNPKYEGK

Results are given in words; binding and its absence hold for the method and conditions named. Binding seen in cells or lysates may run through a third protein. Some entries that bind do so weakly or less than the wild type.

In test [1] the target is T1, TβRI (of the pull-down assays, Fig. 1C) (UniProt P36897).
T1 sequence: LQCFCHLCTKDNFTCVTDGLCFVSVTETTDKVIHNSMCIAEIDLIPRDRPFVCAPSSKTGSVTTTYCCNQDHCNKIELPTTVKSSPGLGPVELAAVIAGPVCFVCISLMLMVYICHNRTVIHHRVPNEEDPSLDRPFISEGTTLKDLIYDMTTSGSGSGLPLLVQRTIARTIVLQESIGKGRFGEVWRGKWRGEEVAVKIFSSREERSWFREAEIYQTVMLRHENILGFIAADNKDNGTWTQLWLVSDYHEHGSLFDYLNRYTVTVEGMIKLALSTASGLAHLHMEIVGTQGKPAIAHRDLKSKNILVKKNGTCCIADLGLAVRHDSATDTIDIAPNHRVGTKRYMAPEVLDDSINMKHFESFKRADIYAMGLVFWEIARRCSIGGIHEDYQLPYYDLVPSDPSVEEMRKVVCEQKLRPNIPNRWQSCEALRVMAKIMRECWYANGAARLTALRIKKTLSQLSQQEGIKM
Kind of test: pull-down; pull-down assays with Kindlin-2 domain constructs and TβRI; format not described.

The target of test [2] is Kindlin-2 (endogenous, MDA-MB-231) (human (endogenous in MDA-MB-231)) (UniProt Q96AC1). The experiment in a line: co-IP; total protein lysates of MDA-MB-231 cells (RIPA or NP40 lysis buffer), endogenous proteins, incubated at 4 °C with protein A resin and specific antibodies, western blot.
For test [3], the target named is T2, TGF-β type 1 receptor (endogenous, MDA-MB-231) (human (endogenous in MDA-MB-231)) (UniProt P36897).
T2 sequence: T1 sequence
Described as above.

The target in test [4] is β1-Integrin (endogenous, MDA-MB-231) (human (endogenous in MDA-MB-231)) (UniProt P05556). The description is as above.

“Kindlin-2 (construct of the pull-down assays, Fig. 1C) (from UniProt Q96AC1 1-680)”: the binding result in test [1] is “binds”. “β1-Integrin (endogenous, MDA-MB-231) (from UniProt P05556 21-798) (receptor)”: the binding entry in test [2] and in test [3] was “binds” each time. On to “Kindlin-2 (endogenous, MDA-MB-231) (from UniProt Q96AC1 1-680)”, for which the binding entry in test [3] and in test [4] was “binds” throughout.

B1: TGF-β type 1 receptor (endogenous, MDA-MB-231) (receptor, UniProt P36897 34-503)
chain: T1 sequence
With B1, the binding result in test [2] and in test [4] was “binds” in each case.
